From publication PMC4207616
No constants are given. Whether binding was seen depends on the method and setting. In cells and extracts the contact can be indirect. Some entries that bind do so weakly or less than the wild type. Sequences can lack the tags named with a protein.

T1: RRS1^WT-His-Flag (Arabidopsis thaliana) (UniProt C4B7M5)
T1 sequence: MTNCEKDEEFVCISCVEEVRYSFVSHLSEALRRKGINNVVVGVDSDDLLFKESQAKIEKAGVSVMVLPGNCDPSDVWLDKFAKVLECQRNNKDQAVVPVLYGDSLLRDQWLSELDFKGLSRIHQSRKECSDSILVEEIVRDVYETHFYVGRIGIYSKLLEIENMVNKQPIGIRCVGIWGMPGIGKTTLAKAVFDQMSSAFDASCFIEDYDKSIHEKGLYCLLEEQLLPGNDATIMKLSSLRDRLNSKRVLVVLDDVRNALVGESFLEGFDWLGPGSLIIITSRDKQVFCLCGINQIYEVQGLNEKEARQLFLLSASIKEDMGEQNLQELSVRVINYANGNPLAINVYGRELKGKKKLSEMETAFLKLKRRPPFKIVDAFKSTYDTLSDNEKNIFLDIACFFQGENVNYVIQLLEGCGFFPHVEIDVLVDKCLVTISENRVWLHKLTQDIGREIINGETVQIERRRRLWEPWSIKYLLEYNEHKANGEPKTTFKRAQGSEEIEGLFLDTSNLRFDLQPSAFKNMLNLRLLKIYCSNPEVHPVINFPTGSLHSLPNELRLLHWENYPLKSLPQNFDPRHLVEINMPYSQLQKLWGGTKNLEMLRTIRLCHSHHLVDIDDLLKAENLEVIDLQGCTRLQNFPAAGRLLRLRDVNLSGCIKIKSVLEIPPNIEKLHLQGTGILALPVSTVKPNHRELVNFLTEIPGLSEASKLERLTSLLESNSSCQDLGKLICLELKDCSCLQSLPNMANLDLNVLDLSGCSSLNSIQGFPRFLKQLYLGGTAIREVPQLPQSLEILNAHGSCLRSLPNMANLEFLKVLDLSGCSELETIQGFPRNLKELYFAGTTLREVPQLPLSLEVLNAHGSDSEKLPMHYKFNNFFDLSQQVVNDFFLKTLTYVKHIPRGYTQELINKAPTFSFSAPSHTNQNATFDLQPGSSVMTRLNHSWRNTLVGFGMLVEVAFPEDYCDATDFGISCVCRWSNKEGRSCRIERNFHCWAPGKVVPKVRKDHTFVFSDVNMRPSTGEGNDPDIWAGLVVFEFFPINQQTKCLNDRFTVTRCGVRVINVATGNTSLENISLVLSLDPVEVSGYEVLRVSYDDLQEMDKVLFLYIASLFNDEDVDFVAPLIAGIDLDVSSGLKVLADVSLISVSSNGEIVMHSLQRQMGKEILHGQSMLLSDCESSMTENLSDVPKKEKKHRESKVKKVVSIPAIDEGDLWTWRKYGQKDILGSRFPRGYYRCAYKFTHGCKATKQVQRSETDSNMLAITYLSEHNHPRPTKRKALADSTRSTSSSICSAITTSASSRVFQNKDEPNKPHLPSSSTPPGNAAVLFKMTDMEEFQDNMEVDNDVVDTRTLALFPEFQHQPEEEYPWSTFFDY

B1: RPS4^WT-HA (protein, UniProt Q9XGM3 1-1217)
chain: METSSISTVEDKPPQHQVFINFRGADLRRRFVSHLVTALKLNNINVFIDDYEDRGQPLDVLLKRIEESKIVLAIFSGNYTESVWCVRELEKIKDCTDEGTLVAIPIFYKLEPSTVRDLKGKFGDRFRSMAKGDERKKKWKEAFNLIPNIMGIIIDKKSVESEKVNEIVKAVKTALTGIPPEGSHNAVVGALGNSNAGTSSGDKKHETFGNEQRLKDLEEKLDRDKYKGTRIIGVVGMPGIGKTTLLKELYKTWQGKFSRHALIDQIRVKSKHLELDRLPQMLLGELSKLNHPHVDNLKDPYSQLHERKVLVVLDDVSKREQIDALREILDWIKEGKEGSRVVIATSDMSLTNGLVDDTYMVQNLNHRDSLQLFHYHAFIDDQANPQKKDFMKLSEGFVHYARGHPLALKVLGGELNKKSMDHWNSKMKKLAQSPSPNIVSVFQVSYDELTTAQKDAFLDIACFRSQDKDYVESLLASSDLGSAEAMSAVKSLTDKFLINTCDGRVEMHDLLYKFSREVDLKASNQDGSRQRRLWLHQHIIKGGIINVLQNKMKAANVRGIFLDLSEVEDETSLDRDHFINMGNLRYLKFYNSHCPQECKTNNKINIPDKLKLPLKEVRCLHWLKFPLETLPNDFNPINLVDLKLPYSEMEQLWEGDKDTPCLRWVDLNHSSKLCSLSGLSKAEKLQRLNLEGCTTLKAFPHDMKKMKMLAFLNLKGCTSLESLPEMNLISLKTLTLSGCSTFKEFPLISDNIETLYLDGTAISQLPMNMEKLQRLVVLNMKDCKMLEEIPGRVGELKALQELILSDCLNLKIFPEIDISFLNILLLDGTAIEVMPQLPSVQYLCLSRNAKISCLPVGISQLSQLKWLDLKYCTSLTSVPEFPPNLQCLDAHGCSSLKTVSKPLARIMPTEQNHSTFIFTNCENLEQAAKEEITSYAQRKCQLLSYARKRYNGGLVSESLFSTCFPGCEVPSWFCHETVGSELEVKLLPHWHDKKLAGIALCAVVSCLDPQDQVSRLSVTCTFKVKDEDKSWVAYTCPVGSWTRHGGGKDKIELDHVFIGYTSCPHTIKCHEEGNSDECNPTEASLKFTVTGGTSENGKYKVLKCGLSLVYAKDKDKNSALETKYDMLIGKSFQETSEGVDGRVKKTKGKYVMPVEKNFQETTEGVDGRVNKKKKTRMDNGRPKKKQRSGRDDNQTRMQVELQEGNINSVIMHTVKNF
B2: RPS4^K242A-HA (protein, UniProt Q9XGM3 1-1217)
chain: METSSISTVEDKPPQHQVFINFRGADLRRRFVSHLVTALKLNNINVFIDDYEDRGQPLDVLLKRIEESKIVLAIFSGNYTESVWCVRELEKIKDCTDEGTLVAIPIFYKLEPSTVRDLKGKFGDRFRSMAKGDERKKKWKEAFNLIPNIMGIIIDKKSVESEKVNEIVKAVKTALTGIPPEGSHNAVVGALGNSNAGTSSGDKKHETFGNEQRLKDLEEKLDRDKYKGTRIIGVVGMPGIGATTLLKELYKTWQGKFSRHALIDQIRVKSKHLELDRLPQMLLGELSKLNHPHVDNLKDPYSQLHERKVLVVLDDVSKREQIDALREILDWIKEGKEGSRVVIATSDMSLTNGLVDDTYMVQNLNHRDSLQLFHYHAFIDDQANPQKKDFMKLSEGFVHYARGHPLALKVLGGELNKKSMDHWNSKMKKLAQSPSPNIVSVFQVSYDELTTAQKDAFLDIACFRSQDKDYVESLLASSDLGSAEAMSAVKSLTDKFLINTCDGRVEMHDLLYKFSREVDLKASNQDGSRQRRLWLHQHIIKGGIINVLQNKMKAANVRGIFLDLSEVEDETSLDRDHFINMGNLRYLKFYNSHCPQECKTNNKINIPDKLKLPLKEVRCLHWLKFPLETLPNDFNPINLVDLKLPYSEMEQLWEGDKDTPCLRWVDLNHSSKLCSLSGLSKAEKLQRLNLEGCTTLKAFPHDMKKMKMLAFLNLKGCTSLESLPEMNLISLKTLTLSGCSTFKEFPLISDNIETLYLDGTAISQLPMNMEKLQRLVVLNMKDCKMLEEIPGRVGELKALQELILSDCLNLKIFPEIDISFLNILLLDGTAIEVMPQLPSVQYLCLSRNAKISCLPVGISQLSQLKWLDLKYCTSLTSVPEFPPNLQCLDAHGCSSLKTVSKPLARIMPTEQNHSTFIFTNCENLEQAAKEEITSYAQRKCQLLSYARKRYNGGLVSESLFSTCFPGCEVPSWFCHETVGSELEVKLLPHWHDKKLAGIALCAVVSCLDPQDQVSRLSVTCTFKVKDEDKSWVAYTCPVGSWTRHGGGKDKIELDHVFIGYTSCPHTIKCHEEGNSDECNPTEASLKFTVTGGTSENGKYKVLKCGLSLVYAKDKDKNSALETKYDMLIGKSFQETSEGVDGRVKKTKGKYVMPVEKNFQETTEGVDGRVNKKKKTRMDNGRPKKKQRSGRDDNQTRMQVELQEGNINSVIMHTVKNF
B3: RPS4^SH-AA-HA (protein, UniProt Q9XGM3 1-1217)
chain: METSSISTVEDKPPQHQVFINFRGADLRRRFVAALVTALKLNNINVFIDDYEDRGQPLDVLLKRIEESKIVLAIFSGNYTESVWCVRELEKIKDCTDEGTLVAIPIFYKLEPSTVRDLKGKFGDRFRSMAKGDERKKKWKEAFNLIPNIMGIIIDKKSVESEKVNEIVKAVKTALTGIPPEGSHNAVVGALGNSNAGTSSGDKKHETFGNEQRLKDLEEKLDRDKYKGTRIIGVVGMPGIGKTTLLKELYKTWQGKFSRHALIDQIRVKSKHLELDRLPQMLLGELSKLNHPHVDNLKDPYSQLHERKVLVVLDDVSKREQIDALREILDWIKEGKEGSRVVIATSDMSLTNGLVDDTYMVQNLNHRDSLQLFHYHAFIDDQANPQKKDFMKLSEGFVHYARGHPLALKVLGGELNKKSMDHWNSKMKKLAQSPSPNIVSVFQVSYDELTTAQKDAFLDIACFRSQDKDYVESLLASSDLGSAEAMSAVKSLTDKFLINTCDGRVEMHDLLYKFSREVDLKASNQDGSRQRRLWLHQHIIKGGIINVLQNKMKAANVRGIFLDLSEVEDETSLDRDHFINMGNLRYLKFYNSHCPQECKTNNKINIPDKLKLPLKEVRCLHWLKFPLETLPNDFNPINLVDLKLPYSEMEQLWEGDKDTPCLRWVDLNHSSKLCSLSGLSKAEKLQRLNLEGCTTLKAFPHDMKKMKMLAFLNLKGCTSLESLPEMNLISLKTLTLSGCSTFKEFPLISDNIETLYLDGTAISQLPMNMEKLQRLVVLNMKDCKMLEEIPGRVGELKALQELILSDCLNLKIFPEIDISFLNILLLDGTAIEVMPQLPSVQYLCLSRNAKISCLPVGISQLSQLKWLDLKYCTSLTSVPEFPPNLQCLDAHGCSSLKTVSKPLARIMPTEQNHSTFIFTNCENLEQAAKEEITSYAQRKCQLLSYARKRYNGGLVSESLFSTCFPGCEVPSWFCHETVGSELEVKLLPHWHDKKLAGIALCAVVSCLDPQDQVSRLSVTCTFKVKDEDKSWVAYTCPVGSWTRHGGGKDKIELDHVFIGYTSCPHTIKCHEEGNSDECNPTEASLKFTVTGGTSENGKYKVLKCGLSLVYAKDKDKNSALETKYDMLIGKSFQETSEGVDGRVKKTKGKYVMPVEKNFQETTEGVDGRVNKKKKTRMDNGRPKKKQRSGRDDNQTRMQVELQEGNINSVIMHTVKNF

Molecular target: T1, RRS1^WT-His-Flag (Arabidopsis thaliana)
Assay: co-IP; RRS1-His-Flag and RPS4-HA variants transiently co-expressed in N. benthamiana (48 h after agroinfiltration); extract in GTEN buffer (10% glycerol, 100 mM Tris-HCl pH 7.5, 1 mM EDTA, 150 mM NaCl) with 5 mM DTT, protease inhibitors, 0.2% Nonidet P-40; anti-FLAG M2 or anti-HA affinity gel, 2 h at 4°C; immunoblot

**Q.** B1 was tested. Which binding did it give?
**A.** binds

**Q.** For B2, which binding is on record?
**A.** binds

**Q.** With B3 as the binder, how does the binding read?
**A.** binds
